# Source: US9938321B2, “Cyclic peptoid oligomers, pharmaceutical compositions and methods of using the same” (priority 2013, dated 2018)
# Non-standard residues stand in square brackets, D forms with d. Residues, ends and D or L forms follow the SMILES beside them. Nphe = O=C(O)CNCc1ccccc1; Orn = NCCC[C@H](N)C(=O)O; Nlys = NCCCCNCC(=O)O
# System: HeLa cells
# Settings: HeLa cells versus MRSA USA300
# Protocol: As an additional parameter of selectivity, the inventors also evaluated the compounds for toxicity towards nucleated mammalian cells (FIG. 3). The compounds were incubated with HeLa cells for 1 hr at 37° C. and cell viability was determined by a dye-based assay.
# HeLa cells (˜[…] cells per well) were seeded in a tissue culture-treated 96-well plate (Corning). The cells were monitored for confluence via light microscopy prior to the addition of compounds to a final volume of 100 μL/well. Following incubation with the compounds (for 1 hour or 24 hours at 37° C.), Cell Titer (Promega) was added to each well and the assay was allowed to develop for 1 hour at 37° C. Absorbance was then read at 490 nm using a Wallac Envision plate reader. The experiments were always conducted in triplicate with water or ethanol as the negative control. Percent cell viability (% CV) was calculated as the ratio of mean absorbance of the test wells and the mean absorbance of the water or ethanol treated wells.
# Following seeding in DMEM supplemented with 10% v/v FBS (fetal bovine serum) in tissue-culture plates (Corning), adherent HeLa cells were trypsinized, washed in PBS, and re-suspended in medium at a density of 1×10^6 cells/mL. A 100 μL cell suspension was seeded onto a 96-well plate and cultured for 25 hrs. Subsequently, cells were exposed to the different compounds for 1 and 24 hrs and the cell viability evaluated using CellTiter 96® AQueous Non-Radioactive Cell Proliferation Assay (Promega).
row,Compound,TI (therapeutic index) = LC50/MIC
1,"NCCCCN1CC(=O)N(Cc2ccccc2)CC(=O)N(CCCCN)CC(=O)N(Cc2ccccc2)CC(=O)N(CCCCN)CC(=O)N(Cc2ccccc2)CC1=O [Compound 30, C(NabNpm)3] (cyclo([Nlys][Nphe][Nlys][Nphe][Nlys][Nphe]))",>1
2,"N=C(N)NCCCCN1CC(=O)N(CC(c2ccccc2)c2ccccc2)CC(=O)N(CCCCNC(=N)N)CC(=O)N(CC(c2ccccc2)c2ccccc2)CC(=O)N(CCCCNC(=N)N)CC(=O)N(CC(c2ccccc2)c2ccccc2)CC(=O)N(CCCCNC(=N)N)CC(=O)N(CC(c2ccccc2)c2ccccc2)CC(=O)N(CCCCNC(=N)N)CC(=O)N(CC(c2ccccc2)c2ccccc2)CC1=O [Compound 31, C(NgbNdp)5]",>1
3,"Cc1cc(C)cc(CN2CC(=O)N(CCCN)CC(=O)N(Cc3cc(C)cc(C)c3)CC(=O)N(CCCN)CC(=O)N(Cc3cc(C)cc(C)c3)CC(=O)N(CCCN)CC2=O)c1 [Compound C124, C(NapNdmb)3]",45
4,"CC(C)C[C@@H]1NC(=O)[C@H](CCCN)NC(=O)[C@H](C(C)C)NC(=O)[C@@H]2CCCN2C(=O)[C@@H](Cc2ccccc2)NC(=O)[C@H](CC(C)C)NC(=O)[C@H](CCCN)NC(=O)[C@H](C(C)C)NC(=O)[C@@H]2CCCN2C(=O)[C@@H](Cc2ccccc2)NC1=O [Gramicidin S, reference compound] (cyclo(V[Orn]L[dF]PV[Orn]L[dF]P))",1
